Values from PubChem BioAssay AID686937 (Drosophila RNAi Screening Center, 2013)
In all, the deposit lists about 23,000 reagents; shown is a random part of those that have a named target and a result. 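Reduced-secretion tags in replicate 1 do not always agree with the z-scores; no criterion for assigning the tags was given.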 Not given: the amount of reagent.

Purpose: 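Genes in the fly needed for secretion of protein constitutively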 (primary screen)
Cell system: Drosophila S2 cells expressing secreted horseradish peroxidase
Knock-down reagent: long dsRNA against Drosophila genes
Timing: about 5.5 days (5 days dsRNA, then 12 h reporter induction)
Challenge: reporter expression induced after 5 days of dsRNA, read 12 h later; inducer not stated
Measured: 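After 5 days of dsRNA and 12 h of reporter induction, medium peroxidase read by chemiluminescence and scored as per-plate z-score; higher values mean more reporter released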
Reading the numbers: z-score: higher = more reporter secreted into medium

sxe2 (sex-specific enzyme 2) [DRSC15692] scored z-score, replicate 1 = 0.3; z-score, replicate 2 = 0.44.
Silencing of CG32448 [DRSC22657] gave: z-score, replicate 1 = -0.03; z-score, replicate 2 = 0.19.
Against CG5281 [DRSC15761] the deposit lists z-score, replicate 1 = 0.27; z-score, replicate 2 = 0.57.
With knock-down of robl22E [DRSC00289] the results were z-score, replicate 1 = 0.04; z-score, replicate 2 = 0.17.
With knock-down of RIOK2 (RIO kinase 2) [DRSC14413], the record shows z-score, replicate 1 = 0.19; z-score, replicate 2 = 0.04.
Knock-down of CG32243 [DRSC08105] gave: z-score, replicate 1 = 0.35; z-score, replicate 2 = -0.01.
Against yuri (yuri gagarin) [DRSC01453] the deposit lists z-score, replicate 1 = -1.37; z-score, replicate 2 = -0.4.
With knock-down of yuri (yuri gagarin) [DRSC01454] the results were z-score, replicate 1 = -0.44; z-score, replicate 2 = 0.31.
With knock-down of yuri (yuri gagarin) [DRSC01943] the results were z-score, replicate 1 = 0.64; z-score, replicate 2 = 0.25.
For yuri (yuri gagarin) [DRSC01972], the entry reads z-score, replicate 1 = 0.36; z-score, replicate 2 = 0.3.
With knock-down of Obp58c (Odorant-binding protein 58c) [DRSC04166], the screen gave z-score, replicate 1 = 0.03; z-score, replicate 2 = 0.2.
With knock-down of Rab26 [DRSC11837] the results were z-score, replicate 1 = 0.36; z-score, replicate 2 = 0.49.
Rab26 [DRSC11838] showed z-score, replicate 1 = 0.47; z-score, replicate 2 = 0.49.
With knock-down of Rab26 [DRSC11839] the results were z-score, replicate 1 = 0.31; z-score, replicate 2 = 0.45.
CG13919 [DRSC08388] gave z-score, replicate 1 = -0.55; z-score, replicate 2 = 0.06.
NaCP60E (Na channel protein 60E) [DRSC04307] scored z-score, replicate 1 = 0.44; z-score, replicate 2 = 0.48.
Knock-down of NaCP60E (Na channel protein 60E) [DRSC21351] gave: z-score, replicate 1 = 0.31; z-score, replicate 2 = -0.59.
CG11694 [DRSC14354] gave z-score, replicate 1 = -0.08; z-score, replicate 2 = 0.23.
Depletion of Roc2 (Regulator of cullins 2) [DRSC07313] gave: z-score, replicate 1 = 0.33; z-score, replicate 2 = 0.41.
Knock-down of pon (partner of numb) [DRSC18823] resulted in: z-score, replicate 1 = 0.24; z-score, replicate 2 = 0.37.
Muc55B (Mucin 55B) [DRSC21440] showed z-score, replicate 1 = 0.11; z-score, replicate 2 = 0.47.
After knock-down of Mcr (Macroglobulin complement-related) [DRSC03366] the results were z-score, replicate 1 = 0.4; z-score, replicate 2 = 0.2.
Silencing of Mad1 (Mitotic arrest-deficient 1) [DRSC07561] came out at: z-score, replicate 1 = 0.39; z-score, replicate 2 = 0.31.
Against Nepl15 (Neprilysin-like 15) [DRSC15630] the deposit lists z-score, replicate 1 = 0.36; z-score, replicate 2 = 0.15.
dome (domeless) [DRSC19583] scored z-score, replicate 1 = -0.04; z-score, replicate 2 = 0.09.
Rai1 (Rat1 Interacting Protein 1) [DRSC20157] gave z-score, replicate 1 = 0.3; z-score, replicate 2 = 0.08.
Plod (procollagen lysyl hydroxylase) [DRSC10601] scored z-score, replicate 1 = 0.36; z-score, replicate 2 = 0.2.
Knock-down of Plod (procollagen lysyl hydroxylase) [DRSC10602] came out at: z-score, replicate 1 = 0.42; z-score, replicate 2 = 0.24.
Depletion of Hr83 (Hormone receptor 83) [DRSC12521] resulted in: z-score, replicate 1 = 0.16; z-score, replicate 2 = 0.21.
For mRpL2 (mitochondrial ribosomal protein L2) [DRSC10896], the entry reads z-score, replicate 1 = -0.27; z-score, replicate 2 = 0.18.
Knock-down of Xpc (Xeroderma pigmentosum, complementation group C) [DRSC07654] resulted in: z-score, replicate 1 = 0.49; z-score, replicate 2 = 0.29.
After knock-down of CR43361 (pseudo) [DRSC17206], the screen gave z-score, replicate 1 = 0.44; z-score, replicate 2 = 0.47.
For CG15676 [DRSC04267], the entry reads z-score, replicate 1 = -0.19; z-score, replicate 2 = 0.17.
Against CG11251 [DRSC09825] the deposit lists z-score, replicate 1 = 0.59; z-score, replicate 2 = 0.25.
tra2 (transformer 2) [DRSC07708] gave z-score, replicate 1 = 0.21; z-score, replicate 2 = 0.33.
CG14565 [DRSC11726] scored z-score, replicate 1 = 0.22; z-score, replicate 2 = 0.3.
Cp7Fc (Chorion protein c at 7F) [DRSC18035] scored z-score, replicate 1 = 0.3; z-score, replicate 2 = 0.55.
For Octbeta3R (Octopamine beta3 receptor) [DRSC15351] the deposit lists z-score, replicate 1 = 0.12; z-score, replicate 2 = 0.23.
Against Octbeta3R (Octopamine beta3 receptor) [DRSC16191] the deposit lists z-score, replicate 1 = 0.38; z-score, replicate 2 = 0.69.
For Octbeta3R (Octopamine beta3 receptor) [DRSC21853], the values are z-score, replicate 1 = 0.19; z-score, replicate 2 = -0.47.
With knock-down of Octbeta3R (Octopamine beta3 receptor) [DRSC21902], the record shows z-score, replicate 1 = 4.34; z-score, replicate 2 = 1.64.
With knock-down of Octbeta3R (Octopamine beta3 receptor) [DRSC22350], the screen gave z-score, replicate 1 = 0.63; z-score, replicate 2 = 0.3.
For CG12985 [DRSC19505] the deposit lists z-score, replicate 1 = -0.31; z-score, replicate 2 = 0.29.
SP1029 [DRSC16848] gave z-score, replicate 1 = 0.22; z-score, replicate 2 = 0.33.
Sid (Stress induced DNase) [DRSC16588] scored z-score, replicate 1 = 0.38; z-score, replicate 2 = 0.36.
Against CG13795 [DRSC02299], the entry reads z-score, replicate 1 = 0.27; z-score, replicate 2 = 0.22.
Against Fsn (F-box synaptic protein) [DRSC06875], the values are z-score, replicate 1 = 0.17; z-score, replicate 2 = 0.45.
CG31988 [DRSC22491] scored z-score, replicate 1 = -0.09; z-score, replicate 2 = 0.16.
CG12171 [DRSC12200] scored z-score, replicate 1 = 0.24; z-score, replicate 2 = 0.35.
Silencing of CG32102 [DRSC22015] gave: z-score, replicate 1 = 0.09; z-score, replicate 2 = 0.38.
Against CG4734 [DRSC06885], the entry reads z-score, replicate 1 = 0.32; z-score, replicate 2 = 0.43.
After knock-down of CG4734 [DRSC22072] the results were z-score, replicate 1 = 0.55; z-score, replicate 2 = -0.45.
